Reference: paper PMC8633983, “GTP binding to translation factor eIF2B stimulates its guanine nucleotide exchange activity” (iScience, 2021)
These are yes or no findings as the source states them, for the method shown. Some binding calls cover weakened binding; strength is not graded here.

Protein sequences, listed by entry. Tags and fused reporters are not part of them.
UniProt P32501: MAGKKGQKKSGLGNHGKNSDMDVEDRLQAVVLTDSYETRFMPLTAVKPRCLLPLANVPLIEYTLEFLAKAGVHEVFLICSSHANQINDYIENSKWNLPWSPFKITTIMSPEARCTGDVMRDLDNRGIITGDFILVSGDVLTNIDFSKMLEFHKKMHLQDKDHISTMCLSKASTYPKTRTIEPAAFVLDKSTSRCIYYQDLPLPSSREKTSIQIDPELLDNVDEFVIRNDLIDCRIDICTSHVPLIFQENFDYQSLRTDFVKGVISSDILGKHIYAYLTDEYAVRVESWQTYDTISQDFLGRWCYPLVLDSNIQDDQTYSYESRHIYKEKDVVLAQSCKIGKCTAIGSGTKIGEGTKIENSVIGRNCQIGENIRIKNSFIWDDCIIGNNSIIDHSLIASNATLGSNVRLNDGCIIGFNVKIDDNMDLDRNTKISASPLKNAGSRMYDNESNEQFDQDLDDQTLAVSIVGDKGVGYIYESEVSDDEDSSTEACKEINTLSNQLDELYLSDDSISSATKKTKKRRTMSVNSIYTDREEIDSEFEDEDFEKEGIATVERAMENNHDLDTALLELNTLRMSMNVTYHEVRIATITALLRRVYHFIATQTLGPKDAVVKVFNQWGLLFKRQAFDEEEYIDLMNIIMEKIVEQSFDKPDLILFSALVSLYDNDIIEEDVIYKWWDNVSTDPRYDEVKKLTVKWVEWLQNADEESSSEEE

Molecular target: T1, eIF2Bγ (S. cerevisiae) (UniProt P09032)
T1 sequence: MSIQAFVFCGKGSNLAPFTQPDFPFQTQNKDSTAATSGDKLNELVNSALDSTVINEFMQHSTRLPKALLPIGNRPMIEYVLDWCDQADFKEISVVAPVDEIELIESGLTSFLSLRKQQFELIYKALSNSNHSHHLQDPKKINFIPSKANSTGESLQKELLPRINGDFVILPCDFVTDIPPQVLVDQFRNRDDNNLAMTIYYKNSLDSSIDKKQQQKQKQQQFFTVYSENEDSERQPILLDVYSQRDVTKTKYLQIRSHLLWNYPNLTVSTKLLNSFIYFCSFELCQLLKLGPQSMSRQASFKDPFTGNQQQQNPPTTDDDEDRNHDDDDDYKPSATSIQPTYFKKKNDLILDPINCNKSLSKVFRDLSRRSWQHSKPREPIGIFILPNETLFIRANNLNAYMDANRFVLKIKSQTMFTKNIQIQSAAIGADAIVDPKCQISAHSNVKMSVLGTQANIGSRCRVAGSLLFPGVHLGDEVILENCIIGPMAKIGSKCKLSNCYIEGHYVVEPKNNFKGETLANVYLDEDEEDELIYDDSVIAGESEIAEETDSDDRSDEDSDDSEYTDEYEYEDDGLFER
Experiment: co-purification of a sub-complex; purified eIF2Bγε sub-complex, used in the GTP filter binding assay; its purification is not described

Substance: eIF2Bε (from UniProt P32501 1-712)
- binding: binds
